Test results: paper PMC7956269
Results are given in words; binding and its absence hold for the method and conditions named. For part of these data: Binding seen in cells or lysates may run through a third protein. Some entries that bind do so weakly or less than the wild type. Sequences can lack the tags named with a protein.

Protein sequences, listed by entry. Tags and fused reporters are not part of them.
UniProt Q08288: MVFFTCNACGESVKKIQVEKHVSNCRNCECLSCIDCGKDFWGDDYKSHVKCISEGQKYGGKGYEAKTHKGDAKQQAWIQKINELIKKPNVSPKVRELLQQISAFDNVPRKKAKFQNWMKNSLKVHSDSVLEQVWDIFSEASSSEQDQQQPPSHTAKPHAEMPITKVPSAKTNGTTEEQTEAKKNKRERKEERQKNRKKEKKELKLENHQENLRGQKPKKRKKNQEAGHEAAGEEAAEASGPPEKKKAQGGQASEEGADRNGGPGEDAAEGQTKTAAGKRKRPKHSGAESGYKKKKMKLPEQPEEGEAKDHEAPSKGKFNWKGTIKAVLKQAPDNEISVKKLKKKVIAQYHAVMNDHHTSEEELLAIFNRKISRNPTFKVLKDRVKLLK
UniProt P70288: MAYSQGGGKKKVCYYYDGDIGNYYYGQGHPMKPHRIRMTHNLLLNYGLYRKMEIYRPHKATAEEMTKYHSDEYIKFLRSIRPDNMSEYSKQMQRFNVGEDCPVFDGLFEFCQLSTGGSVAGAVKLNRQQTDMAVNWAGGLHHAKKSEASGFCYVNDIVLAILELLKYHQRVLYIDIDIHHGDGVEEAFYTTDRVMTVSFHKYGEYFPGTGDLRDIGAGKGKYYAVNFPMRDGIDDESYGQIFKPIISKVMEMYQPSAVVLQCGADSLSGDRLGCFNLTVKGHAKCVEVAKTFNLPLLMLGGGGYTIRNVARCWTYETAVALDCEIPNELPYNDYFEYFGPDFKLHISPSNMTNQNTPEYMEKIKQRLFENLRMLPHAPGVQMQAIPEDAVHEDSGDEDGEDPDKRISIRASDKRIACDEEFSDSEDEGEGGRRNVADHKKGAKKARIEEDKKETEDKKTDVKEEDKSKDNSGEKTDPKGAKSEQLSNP

Columns and labels:
3*Flag-FOXC1 (mouse) = 3*Flag-FOXC1 (mouse) (UniProt Q61572); assay: co-IP; HEK293T cells co-transfected; lysate in Pierce IP Lysis Buffer; anti-Flag antibody (IgG as control), protein A/G agarose, 4 °C; blots with anti-GFP and anti-HA
[1] = target: HA-FOXC1 (in F9 cells) (mouse) (UniProt Q61572); assay: ChIP-reChIP; F9 cells co-overexpressing HA-FOXC1 and 3*Flag-HDAC2, 48 h; formaldehyde-fixed chromatin; first round anti-HA (or IgG), eluted, second round anti-Flag; Q-RT-PCR of region P3 of the Nanog promoter

| binding (3*Flag-FOXC1 (mouse)) | binding [1] | Substance |
| --- | --- | --- |
| binds |  | GFP-LYAR (from UniProt Q08288 1-388) |
|  | binds | 3*Flag-HDAC2 (in F9 cells) (from UniProt P70288 1-488) |
| binds |  | GFP-HDAC2 (from UniProt P70288 1-488) |
